Test results reported in patent US20220204643A1.
Read-outs that look alike come from different tables or passages of the source. Results are given in words; binding and its absence hold for the method and conditions named. Some binding calls cover weakened binding; strength is not graded here.

T1: hematopoietic cell-specific Lyn substrate 1, transcript variant 1 (human) (UniProt P14317)
T1 sequence: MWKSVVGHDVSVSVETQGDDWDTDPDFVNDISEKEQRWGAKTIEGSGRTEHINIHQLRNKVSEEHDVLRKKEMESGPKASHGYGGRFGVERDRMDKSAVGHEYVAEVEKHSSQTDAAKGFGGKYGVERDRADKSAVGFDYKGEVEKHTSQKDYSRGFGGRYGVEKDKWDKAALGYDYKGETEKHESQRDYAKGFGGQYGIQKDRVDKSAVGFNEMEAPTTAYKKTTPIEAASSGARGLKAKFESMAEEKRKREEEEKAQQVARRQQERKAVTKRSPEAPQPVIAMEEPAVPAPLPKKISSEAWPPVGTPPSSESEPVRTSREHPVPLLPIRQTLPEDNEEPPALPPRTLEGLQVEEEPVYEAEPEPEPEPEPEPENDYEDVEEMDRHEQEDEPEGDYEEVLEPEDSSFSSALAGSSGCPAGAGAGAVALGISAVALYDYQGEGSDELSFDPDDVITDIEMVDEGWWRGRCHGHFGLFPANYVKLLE

T2: G protein-coupled receptor 83, transcript variant 1 (human) (UniProt Q9NYM4)
T2 sequence: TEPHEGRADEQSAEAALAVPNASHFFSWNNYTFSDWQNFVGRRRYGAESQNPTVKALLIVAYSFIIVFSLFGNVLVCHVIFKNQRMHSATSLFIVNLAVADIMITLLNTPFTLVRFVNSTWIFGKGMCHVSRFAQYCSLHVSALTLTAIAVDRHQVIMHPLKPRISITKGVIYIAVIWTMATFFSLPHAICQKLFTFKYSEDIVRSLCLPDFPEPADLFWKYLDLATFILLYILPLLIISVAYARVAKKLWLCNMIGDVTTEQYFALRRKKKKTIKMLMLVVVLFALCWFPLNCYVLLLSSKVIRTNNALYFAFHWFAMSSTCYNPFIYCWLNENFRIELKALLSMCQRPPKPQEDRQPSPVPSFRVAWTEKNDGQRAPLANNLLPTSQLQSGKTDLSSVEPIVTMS


Key:
[1] = biological target: T1, hematopoietic cell-specific Lyn substrate 1, transcript variant 1 (human); assay: protein array
[2] = biological target: T1, hematopoietic cell-specific Lyn substrate 1, transcript variant 1 (human)
[3] = biological target: T2, G protein-coupled receptor 83, transcript variant 1 (human); assay: protein array
[4] = biological target: T2, G protein-coupled receptor 83, transcript variant 1 (human)

Row | binding [1] | binding [2] | binding [3] | binding [4] | Binder
1 | binds | binds |  |  | TKIC1005 (antibody, V domains shown) VH: EVQLVESGGGLVKPGGSLRLSCAVSGFTFRSYSMNWVRQAPGKGLEWVSSISSSSRYVDYADSVKGRFTISRDNAKNLLYLQMNFLRVEDTAVYYCARTETKWEDRGLWDYWGQGTLVTVSS VL: EIVMTQSPATLSVSPGETATLSCRASQSVSSNLAWYQQKPGQAPRLLMYGASTRATSVPARFSGSASGTDFTLTISSLQSEDFALYYCQQYNNWPQYTFGQGTKLEIKR
2 |  |  | binds | binds | THNS1013 (antibody, V domains shown) VH: EVQLVQSGAEVKKPGESLKISCQGSGYRFNAYWIGWVRQIPGKGLEWMGIIYPGDSDTKYSPSFQGQVTISADKSISTAYLQWNGLEASDTAVYYCARSTSSSTSDFHYMDVWGKGTTVTISS VL: EIVLTQSPDTLSLSPGERATLSCRASQSVSSSLAWYQQKPGQAPRLLIYYASNRATDIPARFSGSGSGTDFTLTISSLEPEDFALYYCQHRITWPPLITFGQGTRLEIKR
